Values from PubChem BioAssay AID1224826 (NIAID, 2016).
The deposit covers about 17,000 reagents; shown is a random part of them. About 1,110 of all reagents (6.6%) count as active. 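Active means lowered or raised reporter signal; replicate intensities are raw and not normalised per plate.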 Unmarked entries are inactive. The numbers tell different reagents against one gene apart. Not all columns of the deposit are shown.

Aim: 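Knock-downs that raise or lower Tnf reporter signal after endotoxin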 (primary screen)
Cell system: RAW264.7 G9 macrophages from mouse bearing reporters for p65 (GFP) and the Tnf promoter (mCherry)
Reagent: siRNA pool against mouse genes, 100 nM
Duration: 16 h of LPS stimulation, after 2 days of siRNA transfection
Conditions: bacterial lipopolysaccharide (Salmonella minnesota R595), 10 ng/ml
Read-out: 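Nuclear mCherry signal of the Tnf promoter reporter measured by imaging after background removal, scaled to each plate median and turned into robust z-scores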
Reading the numbers: Tnf reporter robust z-score: higher = stronger Tnf promoter reporter signal after LPS
Hit rule: 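a well counts as active at a score of -1.3 or below (Tlr4 knock-down control median) or above 3 (raised signal); controls and wells holding fewer than 50 cells are excluded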
Calls: active = Tnf reporter clearly lowered or raised; inactive = no clear change in Tnf reporter

Serpina5 → Tnf reporter robust z-score = 0.05; fewer than 50 cells in well = enough cells in well
Ceacam11 → Tnf reporter robust z-score = 0.9; fewer than 50 cells in well = enough cells in well
Rmdn1 → Tnf reporter robust z-score = 0.94; fewer than 50 cells in well = enough cells in well
Sike1 #1 → Tnf reporter robust z-score = 0.2; fewer than 50 cells in well = enough cells in well
Sike1 #2 → fewer than 50 cells in well = fewer than 50 cells per well; well left out of calls
Ranbp9 → Tnf reporter robust z-score = 0.55; fewer than 50 cells in well = enough cells in well
Cklf → Tnf reporter robust z-score = 0.26; fewer than 50 cells in well = enough cells in well

Entries listed so far whose target name starts with C or c:
Ceacam11 → Tnf reporter robust z-score = 0.9; fewer than 50 cells in well = enough cells in well
Cklf → Tnf reporter robust z-score = 0.26; fewer than 50 cells in well = enough cells in well

Additional reagents:
Nup37 → Tnf reporter robust z-score = 0.47; fewer than 50 cells in well = enough cells in well
Hmgn1 → Tnf reporter robust z-score = 0.03; fewer than 50 cells in well = enough cells in well
Pik3c2b → Tnf reporter robust z-score = 3.26 (active); fewer than 50 cells in well = enough cells in well
Eef2k → Tnf reporter robust z-score = 0.66; fewer than 50 cells in well = enough cells in well
Zcrb1 → fewer than 50 cells in well = fewer than 50 cells per well; well left out of calls
